The target in this series is Endonuclease V Y75A mutant (Escherichia coli) (UniProt P68739). The experiment in a line: binding assay. To be noted: inosine at penultimate 3' position [16 (inosine, written as G)]; purified recombinant protein; letters built from the parent sequence and the stated change.

The results in this text go back to US20130323795.

Construct, isoform or probe ends are uncertain for at least one entry.

For the sequence CCCGCAAAGTTCCTCGA (double strand), the binding result is listed as “binds”.
